The text below walks through data of PMC11223215, “Metronidazole Interaction with Cu^2+ and Zn^2+: Speciation Study in Aqueous Solution and Biological Activity Evaluation” (ACS Omega, 2024).

One experiment has as its system Aspergillus fumigatus. Put plainly: In vitro activity against A. fumigatus. In kind it is cell-based. The method, then:
(§1) The assays were performed at 37 °C in sterile 96-well microtiter plates, each well containing 10 μL of aqueous compound together with a bacterial/fungal/MRC-5 inoculum (190 μL; 5 × 10^3 CFU/mL). The compounds were tested at 64, 16, 4, 1, and 0.25 μ-mol L^–1. Bacterial/fungal/MRC-5 growth was compared to untreated-control wells (100% growth) and medium-control wells (0% cell growth). After 3 days of incubation, 50 μL of resazurin was added in each well. After 30 min at 37 °C, the fluorescence was measured at λex = 550 nm and λem = 590 nm. The results are expressed as % reduction in cell growth/viability compared to control wells, and IC50 values were determined.

Experiment [1] relates to MRC-5 human fetal lung fibroblasts. Put plainly: Cytotoxicity on MRC-5 cells. It is filed as cell-based. To be noted: MRC5, MRC-5, reference validation of the screening panel. The method, then:
as §1, with “Briefly, S. aureus and E. coli were cultured in MHT (Mueller Hinton Broth) and maintained on TSA (Tryptone Soy Agar). […] The T. b. brucei Squib 427 strain (suramine-sensitive) and T. b. rhodesiense STIB-900 strain were maintained in Hirumi’s Modified Iscove’s medium-9 (HMI-9) medium, supplemented with 10% inactivated fetal calf serum. […] All cultures were incubated at 37 °C under an atmosphere of 5% CO2. The assays” for “The assays”

The structures appear in SMILES notation. Converted amounts (≈) assume the structure as drawn.

In turn, `Clc1ccc(COC(Cn2ccnc2)c2ccc(Cl)cc2Cl)c(Cl)c1` (centres unmarked) [Miconazole] yielded an IC50 in the experiment with Aspergillus fumigatus of 1.18 µg/mL (≈ 2.84 µM).
In experiment [1], `CC/C(=C(\c1ccccc1)c1ccc(OCCN(C)C)cc1)c1ccccc1` [Tamoxifen] displayed an IC50 of 3.72 µg/mL (≈ 10 µM).

A word on the IC50: it is the concentration that inhibits the measured activity by half. A low value points to greater potency in that assay.
